Assay results from publication PMC9967013 (Pharmaceutics, 2023).

Experiment: peptide synthesis
Details: conjugation step, one disulfide bridge, sequence written open

## DOTA-PEG3-TZ(PEG4-Octr)-PEG2-Trz-PEG3-Val-Cit-pABOC-FTY720
  conjugation yield: 33%
